Results on six molecules are retold here after paper PMC2860244.

Chains of the proteins cited; added tags and fusions are not shown.
UniProt P20263: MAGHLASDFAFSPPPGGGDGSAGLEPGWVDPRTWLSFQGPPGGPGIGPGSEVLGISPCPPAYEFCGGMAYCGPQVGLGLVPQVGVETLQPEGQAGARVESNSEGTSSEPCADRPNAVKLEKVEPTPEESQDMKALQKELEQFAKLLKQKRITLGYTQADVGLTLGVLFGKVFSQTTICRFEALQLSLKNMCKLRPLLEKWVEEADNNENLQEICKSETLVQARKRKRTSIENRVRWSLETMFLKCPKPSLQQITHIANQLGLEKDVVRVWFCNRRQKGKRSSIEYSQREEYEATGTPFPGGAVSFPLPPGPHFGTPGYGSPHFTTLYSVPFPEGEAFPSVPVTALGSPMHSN

These are yes or no findings as the source states them, for the method shown. Binding seen in cells or lysates may run through a third protein. These calls come from enrichment with a bait or labelling near it, and not all partners need be listed. Tags and fused reporters may be left off the sequences shown.

The chains are these.
B1: prolyl 4-hydroxylase subunit alpha-1 (protein, UniProt Q60715-2 18-534)
chain: HPGFFTSIGQMTDLIHNEKDLVTSLKDYIKAEEDKLEQIKKWAEKLDRLTSTATKDPEGFVGHPVNAFKLMKRLNTEWSELENLILKDMSDGFISNLTIQRQYFPNDEDQVGAAKALFRLQDTYNLDTNTISKGNLPGVQHKSFLTAEDCFELGKVAYTEADYYHTELWMEQALTQLEEGELSTVDKVSVLDYLSYAVYQQGDLDKALLLTKKLLELDPEHQRANGNLVYFEYIMSKEKDANKSASGDQSDQKTAPKKKGIAVDYLPERQKYEMLCRGEGIKMTPRRQKRLFCRYHDGNRNPKFILAPAKQEDEWDKPRIIRFHDIISDAEIEIVKDLAKPRLSRATVHDPETGKLTTAQYRVSKSAWLSGYEDPVVSRINMRIQDLTGLDVSTAEELQVANYGVGGQYEPHFDFARKDEPDAFRELGTGNRIATWLFYMSDVSAGGATVFPEVGASVWPKKGTAVFWYNLFASGEGDYSTRHAACPVLVGNKWVSNKWLHERGQEFRRPCTLSELE
B2: heterogeneous nuclear ribonucleoprotein L (protein, UniProt Q8R081 1-586)
chain: MSRRLLPRAEKRRRRLEQRQQPDEQLRRAGAMVKMAAAGGGGGGGRYYGGGNEGGRAPKRLKTENAGDQHGGGGGGGSGAAGGGGGENYDDPHKTPASPVVHIRGLIDGVVEADLVEALQEFGPISYVVVMPKKRQALVEFEDVLGACNAVNYAADNQIYIAGHPAFVNYSTSQKISRPGDSDDSRSVNSVLLFTILNPIYSITTDVLYTICNPCGPVQRIVIFRKNGVQAMVEFDSVQSAQRAKASLNGADIYSGCCTLKIEYAKPTRLNVFKNDQDTWDYTNPNLSGQGDPGSNPNKRQRQPPLLGDHPAEYGGPHGGYHSHYHDEGYGPPPPHYEGRRMGPPVGGHRRGPSRYGPQYGHPPPPPPPPDYGPHADSPVLMVYGLDQSKMNCDRVFNVFCLYGNVEKVKFMKSKPGAAMVEMADGYAVDRAITHLNNNFMFGQKMNVCVSKQPAIMPGQSYGLEDGSCSYKDFSESRNNRFSTPEQAAKNRIQHPSNVLHFFNAPLEVTEENFFEICDELGVKRPTSVKVFSGKSERSSSGLLEWDSKSDALETLGFLNHYQMKNPNGPYPYTLKLCFSTAQHAS
B3: UDP-N-acetylglucosamine-peptide N-acetylglucosaminyltransferase 110 kDa subunit (protein, UniProt Q8CGY8 1-1046)
chain: MASSVGNVADSTEPTKRMLSFQGLAELAHREYQAGDFEAAERHCMQLWRQEPDNTGVLLLLSSIHFQCRRLDRSAHFSTLAIKQNPLLAEAYSNLGNVYKERGQLQEAIEHYRHALRLKPDFIDGYINLAAALVAAGDMEGAVQAYVSALQYNPDLYCVRSDLGNLLKALGRLEEAKACYLKAIETQPNFAVAWSNLGCVFNAQGEIWLAIHHFEKAVTLDPNFLDAYINLGNVLKEARIFDRAVAAYLRALSLSPNHAVVHGNLACVYYEQGLIDLAIDTYRRAIELQPHFPDAYCNLANALKEKGSVAEAEDCYNTALRLCPTHADSLNNLANIKREQGNIEEAVRLYRKALEVFPEFAAAHSNLASVLQQQGKLQEALMHYKEAIRISPTFADAYSNMGNTLKEMQDVQGALQCYTRAIQINPAFADAHSNLASIHKDSGNIPEAIASYRTALKLKPDFPDAYCNLAHCLQIVCDWTDYDERMKKLVSIVAEQLEKNRLPSVHPHHSMLYPLSHGFRKAIAERHGNLCLDKINVLHKPPYEHPKDLKLSDGRLRVGYVSSDFGNHPTSHLMQSIPGMHNPDKFEVFCYALSPDDGTNFRVKVMAEANHFIDLSQIPCNGKAADRIHQDGIHILVNMNGYTKGARNELFALRPAPIQAMWLGYPGTSGALFMDYIITDQETSPAEVAEQYSEKLAYMPHTFFIGDHANMFPHLKKKAVIDFKSNGHIYDNRIVLNGIDLKAFLDSLPDVKIVKMKCPDGGDNPDSSNTALNMPVIPMNTIAEAVIEMINRGQIQITINGFSISNGLATTQINNKAATGEEVPRTIIVTTRSQYGLPEDAIVYCNFNQLYKIDPSTLQMWANILKRVPNSVLWLLRFPAVGEPNIQQYAQNMGLPQNRIIFSPVAPKEEHVRRGQLADVCLDTPLCNGHTTGMDVLWAGTPMVTMPGETLASRVAASQLTCLGCLELIAKSRQEYEDIAVKLGTDLEYLKKIRGKVWKQRISSPLFNTKQYTMELERLYLQMWEHYAAGNKPDHMIKPVEVTESA
B4: lymphocyte-specific helicase (protein, UniProt Q60848 1-821)
chain: MAEQTEPAVITPAMLEEEEQLEAAGLEKERKMLEEAQKSWDRESTEIRYRRLQHLLEKSNIYSKFLLTKMEQQQLEEQKKKEKLEKKKRSLKLTEGKSLVDGNGEKPVMKKKRGREDESYNISEVMSKEEILSVAKKHKDNEDESSSTTSLCVEDIQKNKDSNSMIKDRLSQTVRQNSKFFFDPVRKCNGQPVPFQQPKHFTGGVMRWYQVEGMEWLRMLWENGINGILADEMGLGKTVQCIATIALMIQRGVPGPFLVCGPLSTLPNWMAEFKRFTPEIPTLLYHGTREDRRKLVKNIHKRQGTLQIHPVVVTSFEIAMRDQNALQHCYWKYLIVDEGHRIKNMKCRLIRELKRFNADNKLLLTGTPLQNNLSELWSLLNFLLPDVFDDLKSFESWFDITSLSETAEDIIAKEREQNVLHMLHQILTPFLLRRLKSDVALEVPPKREVVVYAPLCNKQEIFYTAIVNRTIANMFGSCEKETVELSPTGRPKRRSRKSINYSELDQFPSELEKLISQIQPEVNRERTVVEGNIPIESEVNLKLRNIMMLLRKCCNHPYMIEYPIDPVTQEFKIDEELVTNSGKFLILDRMLPELKKRGHKVLVFSQMTSMLDILMDYCHLRNFIFSRLDGSMSYSEREKNIYSFNTDPDVFLFLVSTRAGGLGINLTAADTVIIYDSDWNPQSDLQAQDRCHRIGQTKPVVVYRLVTANTIDQKIVERAAAKRKLEKLIIHKNHFKGGQSGLSQSKNFLDAKELMELLKSRDYEREVKGSREKVISDEDLELLLDRSDLIDQMKASRPIKGKTGIFKILENSEDSSAECLF
B5: transcription intermediary factor 1-alpha (protein, UniProt Q64127-2 1-1017)
chain: MEVAVEKAAAAAAPAGGPAAAAPSGENEAESRQGPDSESGGEASRLNLLDTCAVCHQNIQSRVPKLLPCLHSFCQRCLPAPQRYLMLTAPALGSAETPPPAPAPAPAPGSPAGGPSPFATQVGVIRCPVCSQECAERHIIDNFFVKDTTEVPSSTVEKSNQVCTSCEDNAEANGFCVECVEWLCKTCIRAHQRVKFTKDHTVRQKEEVSPEAVGVTSQRPVFCPFHKKEQLKLYCETCDKLTCRDCQLLEHKEHRYQFIEEAFQNQKVIIDTLITKLMEKTKYIKYTGNQIQNRIIEINQNQKQVEQDIKVAIFTLMVEINKKGKALLHQLESLAKDHRMKLMQQQQEVAGLSKQLEHVMHFSKWAVSSGSSTALLYSKRLITYRLRHLLRARCDASPVTNTTIQFHCDPSFWAQNIINLGSLVIEDKESQPQMPKQNPVVEQSSQPPGGLPSNQLSKFPTQISLAQLRLQHIQQQHPPPRLINFQNHSPKPNGPVLPPYPQQLRYSPSQNVPRQTTIKPNPLQMAFLAQQAIKQWQISSVQAPPTTASSSSSTPSSPTITSAAGYDGKAFSSPMIDLSAPVGGSYNLPSLPDIDCSSTIMLDNIARKDTGVDHAQPRPPSNRTVQSPNSSVPSPGLAGPVTMTSVHPPIRSPSASSVGSRGSSGSSSKPAGADSTHKVPVVMLEPIRIKQENSGPPENYDFPVVIVKQESDEESRPQNTNYPRSILTSLLLNSSQSSASEETVLRSDAPDSTGDQPGLHQENSSNGKSEWSDASQKSPVHVGETRKEDDPNEDWCAVCQNGGELLCCEKCPKVFHLTCHVPTLTNFPSGEWICTFCRDLSKPEVDYDCDVPSHHSEKRKSEGLTKLTPIDKRKCERLLLFLYCHEMSLAFQDPVPLTVPDYYKIIKNPMDLSTIKKRLQEDYCMYTKPEDFVADFRLIFQNCAEFNEPDSEVANAGIKLESYFEELLKNLYPEKRFPKVEFRHEAEDCKFSDDSDDDFVQPRKKRLKSTEDRQLLK
B6: DNA ligase 3 (protein, UniProt P97386 1-1015)
chain: MTLAFKILFPRNLCALGRKELCLFPEQNRWAAISQFSQWSETNLLGGCCLLQRRKPVLALQRGHLRPRATHLTFWPGSHVGLCTGPCAMAEQRFCVDYAKRGTAGCKKCKEKIVKGVCRIGKVVPNPFSESGGDMKEWYHIKCMFEKLERARATTKKIEDLTELEGWEELEDNEKEQISQHIADLSSKAAATPKKKAAVQAKLTTTGQVTSPVKGASFITSTNPRKFSGFSAAKPNNSEQAPSSPAPGTSLSASKCDPKHKDCLLREFRKLCAMVAENPSYNTKTQIIHDFLQKGSTGGFSDGFHGDVYLTVKLLLPGVIKSVYNLNDKQIVKLFSRIFNCNPDDMARDLEQGDVSETIRIFFEQSKSFPPAAKSLLTIQEVDAFLLHLSKLTKEDEQQQALQDIASRCTANDLKCIIRLIKHDLKMNSGAKHVLDALDPNAYEAFKASRNLQDVVERVLHNEQEVEKDPGRRRALRVQASLMTPVQPMLAEACKSIEYAMKKCPNGMFSEIKYDGERVQVHKKGDHFSYFSRSLKPVLPHKVAHFKDYIPKAFPGGQSMILDSEVLLIDNNTGKPLPFGTLGVHKKAAFQDANVCLFVFDCIYFNDVSLMDRPLCERRKFLHDNMVEIRNRIMFSEMKQVTKASDLADMINRVIREGLEGLVLKDVKGTYEPGKRHWLKVKKDYLNEGAMADTADLVVLGAFYGQGSKGGMMSIFLMGCYDPDSQKWCTVTKCAGGHDDATLARLQKELVMVKISKDPSKIPSWLKINKIYYPDFIVPDPKKAAVWEITGAEFSRSEAHTADGISIRFPRCTRIRDDKDWKSATNLPQLKELYQLSKDKADFAVVAGDEASPTTGGSSGENEGTAGSAGPCKGPPSKSSASAKTTEQKLNSPSSRGGIKPIPKHSPMKPGEKLAVKSSPVKVGMKRKATDETPCLKKVLLDVFTGVRLYLPPSTPDFKRLKRYFVAFDGDLVQEFDMGSATHVLGNREKNTDAQLVSSEWIWACIRKRRLIAPC

The assay has as its target Oct4-FTAP fusion protein (mouse) (UniProt P20263). As to the kind of experiment: affinity purification with mass spectrometry; one-step purification on anti-FLAG M2 Dynal beads from whole-cell extracts of Oct4-FTAP ESCs against unmodified control cells (AB2.2); 150 mM NaCl, 0.1% NP-40, 90 min, 4°C; elution with AcTEV protease; three independent purifications; LC-MS/MS.
Take B1: the binding entry is recorded as “binds”.

For B2, the binding entry was “binds”.

As to B3, the binding result was “binds”.

B4: the binding result was “binds”.

With B5, the binding entry is given as “binds”.

Turning to B6, the binding result is reported as “binds”.
